Measured values as given in PMC8782181.
Results are given in words; binding and its absence hold for the method and conditions named. Binding seen in cells or lysates may run through a third protein. These calls come from enrichment with a bait or labelling near it, and not all partners need be listed.

Chains of the proteins cited; added tags and fusions are not shown.
UniProt P53297: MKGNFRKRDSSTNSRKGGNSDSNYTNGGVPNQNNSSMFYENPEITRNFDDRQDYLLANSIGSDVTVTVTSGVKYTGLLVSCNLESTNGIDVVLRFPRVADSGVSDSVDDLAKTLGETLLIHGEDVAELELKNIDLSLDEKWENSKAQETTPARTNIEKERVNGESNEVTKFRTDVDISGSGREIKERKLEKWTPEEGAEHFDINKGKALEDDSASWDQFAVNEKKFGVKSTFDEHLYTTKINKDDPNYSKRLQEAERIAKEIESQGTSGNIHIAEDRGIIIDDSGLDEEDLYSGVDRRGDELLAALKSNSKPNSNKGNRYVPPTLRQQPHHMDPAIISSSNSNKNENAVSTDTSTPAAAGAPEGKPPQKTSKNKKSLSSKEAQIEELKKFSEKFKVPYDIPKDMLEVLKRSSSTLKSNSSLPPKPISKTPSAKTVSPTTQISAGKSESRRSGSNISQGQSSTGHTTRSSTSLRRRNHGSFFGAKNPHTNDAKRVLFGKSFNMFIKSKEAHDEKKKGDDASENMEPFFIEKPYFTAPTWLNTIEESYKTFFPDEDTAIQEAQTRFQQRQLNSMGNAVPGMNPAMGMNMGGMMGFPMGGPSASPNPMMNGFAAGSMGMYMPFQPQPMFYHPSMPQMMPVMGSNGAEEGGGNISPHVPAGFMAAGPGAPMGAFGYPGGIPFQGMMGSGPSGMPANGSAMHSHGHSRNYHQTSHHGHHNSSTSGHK

Molecular target: Pbp1-myc (S. cerevisiae) (UniProt P53297)
Test: affinity purification with mass spectrometry; cells unstressed or glucose-depleted (10 min for Dcp1-myc, 60 min for Pbp1-myc), cross-linked with 0.8% formaldehyde; 20,000 g pellet of the lysate in Blob100 buffer (20 mM Tris-HCl pH 8, 100 mM NaCl, 1 mM MgCl2, 0.5% NP40) on anti-c-Myc magnetic beads, eluted with Myc peptide; label-free LC-MS/MS; hits are the proteins that cluster (Mfuzz) with the tagged bait across IP, pellet, supernatant, total and unbound fractions

Binder	binding
Hxt1 (protein, UniProt P32465 1-570) MNSTPDLISPQKSNSSNSYELESGRSKAMNTPEGKNESFHDNLSESQVQPAVAPPNTGKGVYVTVSICCVMVAFGGFIFGWDTGTISGFVAQTDFLRRFGMKHHDGSHYLSKVRTGLIVSIFNIGCAIGGIVLAKLGDMYGRRIGLIVVVVIYTIGIIIQIASINKWYQYFIGRIISGLGVGGITVLSPMLISEVAPSEMRGTLVSCYQVMITLGIFLGYCTNFGTKNYSNSVQWRVPLGLCFAWALFMIGGMMFVPESPRYLVEAGRIDEARASLAKVNKCPPDHPYIQYELETIEASVEEMRAAGTASWGELFTGKPAMFQRTMMGIMIQSLQQLTGDNYFFYYGTIVFQAVGLSDSFETSIVFGVVNFFSTCCSLYTVDRFGRRNCLMWGAVGMVCCYVVYASVGVTRLWPNGQDQPSSKGAGNCMIVFACFYIFCFATTWAPIAYVVISECFPLRVKSKCMSIASAANWIWGFLISFFTPFITGAINFYYGYVFMGCMVFAYFYVFFFVPETKGLSLEEVNDMYAEGVLPWKSASWVPVSKRGADYNADDLMHDDQPFYKSLFSRK	binds
Ist2 (protein, UniProt P38250 1-946) MSQTITSLDPNCVIVFNKTSSANEKSLNVEFKRLNIHSIIEPGHDLQTSYAFIRIHQDNAKPLFSFLQNLDFIESIIPYHDTELSDDLHKLISISKSKILEAPKQYELYNLSNLTNNPKQSLYFAFLQNYIKWLIPFSFFGLSIRFLSNFTYEFNSTYSLFAILWTLSFTAFWLYKYEPFWSDRLSKYSSFSTIEFLQDKQKAQKKASSVIMLKKCCFIPVALLFGAILLSFQLYCFALEIFIKQIYNGPMISILSFLPTILICTFTPVLTVIYNKYFVEPMTKWENHSSVVNAKKSKEAKNFVIIFLSSYVPLLITLFLYLPMGHLLTAEIRTKVFNAFSILARLPTHDSDFIIDTKRYEDQFFYFIVINQLIQFSMENFVPSLVSIAQQKINGPNPNFVKAESEIGKAQLSSSDMKIWSKVKSYQTDPWGATFDLDANFKKLLLQFGYLVMFSTIWPLAPFICLIVNLIVYQVDLRKAVLYSKPEYFPFPIYDKPSSVSNTQKLTVGLWNSVLVMFSILGCVITATLTYMYQSCNIPGVGAHTSIHTNKAWYLANPINHSWINIVLYAVFIEHVSVAIFFLFSSILKSSHDDVANGIVPKHVVNVQNPPKQEVFEKIPSPEFNSNNEKELVQRKGSANEKLHQELGEKQPASSANGYEAHAATHANNDPSSLSSASSPSLSSSSSSSKTGVVKAVDNDTAGSAGKKPLATESTEKRNSLVKVPTVGSYGVAGATLPETIPTSKNYYLRFDEDGKSIRDAKSSAESSNATNNNTLGTESKLLPDGDAVDALSRKIDQIPKIAVTGGENNENTQAKDDAATKTPLIKDANIKPVVNAAVNDNQSKVSVATEQTKKTEVSTKNGPSRSISTKETKDSARPSNNNTTTTTTTDATQPHHHHHHHRHRDAGVKNVTNNSKTTESSSSSSAAKEKPKHKKGLLHKLKKKL	binds
Lsm1 (protein, UniProt P47017 1-172) MSANSKDRNQSNQDAKRQQQNFPKKISEGEADLYLDQYNFTTTAAIVSSVDRKIFVLLRDGRMLFGVLRTFDQYANLILQDCVERIYFSEENKYAEEDRGIFMIRGENVVMLGEVDIDKEDQPLEAMERIPFKEAWLTKQKNDEKRFKEETHKGKKMARHGIVYDFHKSDMY	binds
Map1 (protein, UniProt Q01662 11-387) SDQASHPTKIYCSGLQCGRETSSQMKCPVCLKQGIVSIFCDTSCYENNYKAHKALHNAKDGLEGAYDPFPKFKYSGKVKASYPLTPRRYVPEDIPKPDWAANGLPVSEQRNDRLNNIPIYKKDQIKKIRKACMLGREVLDIAAAHVRPGITTDELDEIVHNETIKRGAYPSPLNYYNFPKSLCTSVNEVICHGVPDKTVLKEGDIVNLDVSLYYQGYHADLNETYYVGENISKEALNTTETSRECLKLAIKMCKPGTTFQELGDHIEKHATENKCSVVRTYCGHGVGEFFHCSPNIPHYAKNRTPGVMKPGMVFTIEPMINEGTWKDMTWPDDWTSTTQDGKLSAQFEHTLLVTEHGVEILTARNKKSPGGPRQRIK	binds
Mis1 (protein, UniProt P09440 35-975) YHILSGRKLAQSIREKANDEIQAIKLKHPNFKPTLKIIQVGARPDSSTYVRMKLKASKDSNVDCIIEKLPAEITEVELLKKISDINDDDSIHGLLIQLPLPRHLDETTITNAVDFKKDVDGFHRYNAGELAKKGGKPYFIPCTPYGCMKLLEEAHVKLDGKNAVVLGRSSIVGNPIASLLKNANATVTVCHSHTRNIAEVVSQADIVIAACGIPQYVKSDWIKEGAVVIDVGINYVPDISKKSGQKLVGDVDFDSVKEKTSYITPVPGGVGPMTVAMLVSNVLLAAKRQFVESEKLPVIKPLPLHLESPVPSDIDISRAQSPKHIKQVAEELGIHSHELELYGHYKAKISPNIFKRLESRENGKYVLVAGITPTPLGEGKSTTTMGLVQALSAHLGKPSIANVRQPSLGPTLGVKGGAAGGGYAQVIPMDEFNLHLTGDIHAISAANNLLAAAIDTRMFHEATQKNDSTFYKRLVPRKKGIRKFTPSMQRRLKRLDIEKEDPDALTPEEVKRFARLNINPDTITIRRVVDINDRMLRQITIGEAATEKGFTRTTGFDITVASELMAILALSKSLHEMKERIGRMVIGADYDNKPVTVEDIGCTGALTALLRDAIKPNLMQTLEGTPVMVHAGPFANISIGASSVIADLMALKLVGSEKNPLNDKNIHEPGYVVTEAGFDFAMGGERFFDIKCRSSGLVPDAVVLVATVRALKSHGGAPNVKPGQSLPKEYTEENIDFVAKGVSNLVKQIENIKTFGIPVVVAINRFETDSQAEIEVIKKAALNAGASHAVTSNHWMEGGKGAVELAHAVVDATKEPKNFNFLYDVNSSIEDKLTSIVQKMYGGAKIEVSPEAQKKIDTYKKQGFGNLPICIAKTQYSLSHDPSLKGVPRGFTFPIRDVRASIGAGYLYALAAEIQTIPGLSTYAGYMAVEVDDDGEIEGLF	binds
Mrn1 (protein, UniProt Q08925 1-612) MVVSYNNNNNNNNNNNNNNISNNNNNNNMFPPFPSSDDFAMYQQSSSSGPYQETYASGPQNFGDAVYPMNGNFTLLPSDFTREPNDSFFYENDGIFDYQRIQQQPTQFQTKQRNDSQQQRFSQEQNFEIDNEVVHNNNRYYEYERSSNEVSPFDDENPNVLSDGMSPTIMATATAVTNANAPLPVNAQANNPLNFTSAPSRTVYLGNVPPNLSVKELLDHVRSGVVEDVKIIPEKMCAFVSFIDESAALLFHSDAILKRLNIGDRDIKIGWGKPTRIDPIVAARISTDGATRNVYIGRMTIEGEESHLSEEQLRVDLEEYGEIDCIKIIKEKGIAFIHFASILNAIKVVTNLPIRNPYYQNKRIFYGKDRCAFITKTQQHNAAQFLGVQPGMEHMIEFSDREFISNALLQQSAAAAAIATSAGGPNNLGNRTVYLGSLPKDVKIEEICNAVRGGLLQSIKLLNDRYVCFVTFIDPTAAAQFYAMSSLYGFTVQKKRCKVGWGKHSGPLPNALALAVSNGASRNVYVGNIDFVGDSLRDERVFTESNLRHIFQQYGEVEQINFLPEKNCCFINYTNISNAILALDKIKSNPYFKDLKINFGKDRCGNVPHQSR	binds
